The target of the test is Nur77 (NR4A1) ligand-binding domain (LBD) (human) (UniProt P22736). Description: SEC-MALS; 100 µL of each protein at 5 mg/mL (180 µM) injected; 40 mM potassium phosphate pH 7.4, 200 mM KCl; 25 °C; both purified. In general terms: SEC sorts molecules by how far they enter the pores of the column.

Protein sequences, listed by entry. Tags and fused reporters are not part of them. Residues count along the entry.
UniProt P22736, residues 356-598: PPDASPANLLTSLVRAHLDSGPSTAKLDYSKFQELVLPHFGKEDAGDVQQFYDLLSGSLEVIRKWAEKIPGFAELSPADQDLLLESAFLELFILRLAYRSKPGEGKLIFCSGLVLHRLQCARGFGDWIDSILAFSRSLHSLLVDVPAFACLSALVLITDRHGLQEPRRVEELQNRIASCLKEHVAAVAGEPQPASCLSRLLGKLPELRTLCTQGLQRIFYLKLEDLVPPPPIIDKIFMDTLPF

These are yes or no findings as the source states them, for the method shown.

Regarding “Nur77 (NR4A1) ligand-binding domain (LBD) (from UniProt P22736 356-598) (domain or fragment)”, the binding entry is “no binding (tested: 180 µM)”.

These data come from publication PMC13132549.
